# Assay results from PubChem BioAssay AID2283127 (EPA ToxCast).
# Protein sequences, listed by entry. Tags and fused reporters are not part of them. Lines headed by an entry give the natural chain unless they say otherwise; changes in a name come on top.
# UniProt Q9Y243: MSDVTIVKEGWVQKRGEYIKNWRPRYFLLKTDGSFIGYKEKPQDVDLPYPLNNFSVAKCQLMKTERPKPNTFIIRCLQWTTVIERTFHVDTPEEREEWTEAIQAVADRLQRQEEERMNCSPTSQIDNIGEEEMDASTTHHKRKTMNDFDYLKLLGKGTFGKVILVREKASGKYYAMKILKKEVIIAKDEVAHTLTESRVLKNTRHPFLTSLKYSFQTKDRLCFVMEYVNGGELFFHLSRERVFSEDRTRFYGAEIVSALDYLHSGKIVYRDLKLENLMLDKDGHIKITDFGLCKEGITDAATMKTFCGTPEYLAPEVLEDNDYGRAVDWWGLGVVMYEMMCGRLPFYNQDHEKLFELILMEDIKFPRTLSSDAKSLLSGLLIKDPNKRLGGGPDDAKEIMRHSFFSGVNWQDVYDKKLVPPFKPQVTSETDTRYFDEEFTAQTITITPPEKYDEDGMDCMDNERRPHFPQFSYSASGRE
# This is a selection; strong and weak results do not stand in their true shares. Results filed as inconclusive are left out. The source made the active and inactive calls. The calls were made as follows: active = hit-call score of the fitted dose curve at least 0.9, where 1 is the maximum; inconclusive = response in the unintended direction; inactive = score below 0.9.
# Target: human AKT serine/threonine Kinase 3 (AKT3), AKT3 (gene 10000) (UniProt Q9Y243)
# Test: NVS_ENZ_hAKT3: NovaScreen (NVS) Enzymatic Assay for human AKT serine/threonine Kinase 3 (AKT3)
# Description: NVS_ENZ_hAKT3 is a biochemical, single-readout assay that uses extracted gene-proteins in a cell-free assay. Measurements were taken 1 hour after chemical dosing in a 384-well plate.NVS_ENZ_hAKT3 is one of one assay component(s) measured or calculated from the NVS_ENZ_hAKT3 assay. It is designed to make measurements of enzyme activity, a form of enzyme reporter, as detected with fluorescence intensity signals by Fluorescence and electrophoretic mobility shift technology.Data from the assay component NVS_ENZ_hAKT3 was analyzed into 1 assay endpoint. This assay endpoint, NVS_ENZ_hAKT3, was analyzed in the positive analysis fitting direction relative to DMSO as the negative control and baseline of activity. Using a type of enzyme reporter, loss-of-signal activity can be used to understand changes in the enzymatic activity as they relate to the gene AKT3. Furthermore, this assay endpoint can be referred to as a primary readout, because this assay has produced multiple assay endpoints where this one serves a enzymatic activity function. To generalize the intended target to other relatable targets, this assay endpoint is annotated to the kinase intended target family, where the subfamily is serine/threonine kinase. […]
smiles,measurement,value
S=C(S)NCCNC(=S)S.[Mn+2].[S-]C([S-])=NCCN=C([S-])[S-].[Zn+2],AC50,active: 13.6 µM
